Measured values published in the supplement of paper PMC12420376.

Experiments:
KURAMOCHI = experiment: drug sensitivity score (DSS2) on cancer cell count; higher = more sensitive; extreme values may be limits of the assay; conditions: 72 h
Outline: (§1)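 Ovarian cancer cells were grown alone or in 1:1 direct co-culture with lung or skin fibroblasts. They were plated onto 384-well plates pre-spotted acoustically with 528 approved and investigational compounds at 5 concentrations, then treated for 72 h. Cells were fixed, immunostained for CK8/18 with Hoechst, and imaged at 10× (4 fields) to count cancer cells. A drug sensitivity score (DSS2) was derived in Breeze from 4-parameter logistic fits, with screen quality checked by Z'.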

OVCAR8 = experiment: as above; conditions: 72 h
Outline: as §1

[1] = co-cultured fibroblast: BJHTERT
[2] = co-cultured fibroblast: none (monoculture)

Structure (SMILES): C[C@@H]1C[C@H](N)C[C@H](c2ccncc2NC(=O)c2ccc(F)c(-c3c(F)cccc3F)n2)C1 [PIM-447]
- drug sensitivity score (KURAMOCHI; [1]): 1.5 DSS
- drug sensitivity score (KURAMOCHI; co-cultured fibroblast: WI38): 2.9 DSS
- drug sensitivity score (KURAMOCHI; [2]): 1.9 DSS
- drug sensitivity score (OVCAR8; [1]): 2.7 DSS
- drug sensitivity score (OVCAR8; co-cultured fibroblast: WI38): 0 DSS
- drug sensitivity score (OVCAR8; [2]): 1.7 DSS
